Some of the results follow. Repeats in this data set agree poorly, so a single value says little.
Biological target: HuR (ELAVL1) - TNFalpha ARE RNA complex (UniProt Q15717)
Test: AlphaScreen HuR-RNA complex signal Z-score relative to positive (Bi-TNF, DMSO) controls (Z-score (SD units of positive control)); higher = more complex signal
Settings: screen stage: primary screen; compound concentration: 25 nM

Protein sequences, listed by entry. Tags and fused reporters are not part of them.
UniProt Q15717, whole entry: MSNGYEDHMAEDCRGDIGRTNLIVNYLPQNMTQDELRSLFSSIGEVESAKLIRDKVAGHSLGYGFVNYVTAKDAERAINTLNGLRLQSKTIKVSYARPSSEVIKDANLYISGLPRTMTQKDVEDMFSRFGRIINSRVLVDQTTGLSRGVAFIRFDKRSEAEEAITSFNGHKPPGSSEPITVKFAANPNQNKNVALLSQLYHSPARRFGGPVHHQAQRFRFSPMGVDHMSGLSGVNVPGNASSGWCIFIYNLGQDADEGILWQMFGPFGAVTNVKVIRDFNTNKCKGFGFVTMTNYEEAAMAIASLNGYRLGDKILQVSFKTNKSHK

Structure (SMILES) | AlphaScreen HuR-RNA complex signal Z-score
C[N+](C)(C)CCOP(=O)(O)OP(=O)([O-])OC[C@H]1O[C@@H](n2ccc(N)nc2=O)[C@H](O)[C@@H]1O | 3.16
C=C(CC)C(=O)c1ccc(OCC(=O)O)c(Cl)c1Cl | -2.5
O=c1cc(-c2ccc(O)cc2)oc2cc(O[C@@H]3O[C@H](CO)[C@@H](O)[C@H](O)[C@H]3O[C@@H]3OC[C@](O)(CO)[C@H]3O)cc(O)c12 | 2.26
C[C@](N)(Cc1ccc(O)cc1)C(=O)O [alpha-METHYL-L-TYROSINE] | 2.84
CC(C)NCC(O)COc1cccc2ccccc12 (racemic) | 2.21
CS(=O)(=O)c1ccc([C@@H](O)[C@@H](CF)NC(=O)C(Cl)Cl)cc1 | 1.69
CCN(CC)CCCC(C)Nc1ccnc2cc(Cl)ccc12 (stereo unspecified) | -3.9
c1ccc2c(c1)CCCC2C1=NCCN1 (stereo unspecified) | 9.29
Oc1ccc2c(c1)OC[C@]1(O)Cc3cc(O)c(O)cc3[C@H]21 | 1.85
C1N2CN3CN1CN(C2)C3 | 1.13
O=C(O)C1=C[C@@H](O)[C@@H](O)[C@H](O)C1 | 1.26
COc1cc(O)c(C(=O)/C=C/c2ccc(OC)c(O)c2)c(OC)c1 | 0.0759
CC(CCC(=O)O)[C@H]1CCC2C3C[C@H](O)[C@@H]4C[C@H](O)CC[C@]4(C)C3CC[C@@]21C (stereo partly drawn) [alpha-HYDROXYDEOXYCHOLIC ACID] | 3.42
OC[C@@H](O)[C@@H](O)[C@H](O)[C@H](O)CO | -3.35
C=CCc1ccc(O)c(OC)c1 | -0.649
CCn1cc(C(=O)O)c(=O)c2cc(F)c(N3CCNCC3)nc21 | 1.29
CC(=O)N[C@@H](Cc1c[nH]c2ccccc12)C(=O)O | 1.36
CC(C(=O)O)c1cccc(Oc2ccccc2)c1 (stereo unspecified) | 0.806
O=C(O)CN(CCN(CC(=O)O)CC(=O)O)CC(=O)O.[Na+].[Na+].[Na+] | -3.59
O=C1OC(c2ccc(O)cc2)(c2ccc(O)cc2)c2ccccc21 | -0.782
COc1cc(OC)c2c(=O)cc(-c3ccccc3)oc2c1 | 0.694
COc1ccc2c(C)cc(=O)oc2c1 | 0.9
COC(=O)C[C@H]1C(C)(C)[C@@H](O)[C@@H]2CC3=C4C=C(OC)O[C@@H](c5ccoc5)[C@]4(C)CCC3[C@@]1(C)C2=O (stereo partly drawn) [3-DEOXO-3beta-HYDROXYMEXICANOLIDE 16-ENOL ETHER] | 2.88

3 compounds from above, sorted by SMILES length, ascending.
Structure (SMILES) | AlphaScreen HuR-RNA complex signal Z-score
C=C(CC)C(=O)c1ccc(OCC(=O)O)c(Cl)c1Cl | -2.5
CCn1cc(C(=O)O)c(=O)c2cc(F)c(N3CCNCC3)nc21 | 1.29
COC(=O)C[C@H]1C(C)(C)[C@@H](O)[C@@H]2CC3=C4C=C(OC)O[C@@H](c5ccoc5)[C@]4(C)CCC3[C@@]1(C)C2=O (stereo partly drawn) [3-DEOXO-3beta-HYDROXYMEXICANOLIDE 16-ENOL ETHER] | 2.88

Continuation.

Structure (SMILES) | AlphaScreen HuR-RNA complex signal Z-score
CCCc1ncc(C[n+]2ccccc2C)c(N)n1 | 0.312
C=CC(C)(O)CCC=C(C)CCC=C(C)C (mixture of isomers) | 0.839
COc1c(-c2coc3cc4c(cc3c2=O)CC(O)C(C)(C)O4)ccc2c1C=CC(C)(C)O2 (stereo unspecified) | 2.38
Cc1cn[nH]c1 | 0.501
NCCc1c[nH]cn1 | 1.79
OC(Cn1cncn1)(Cn1cncn1)c1ccc(F)cc1F | 2.32
Nc1[nH]cnc2ncnc1-2 | -0.0308
CC(=O)[C@@]1(O)CC[C@H]2[C@@H]3C=C(Cl)C4=CC(=O)[C@@H]5C[C@@H]5[C@]4(C)[C@H]3CC[C@@]21C | 1.93
NS(=O)(=O)c1cc(C2(O)NC(=O)c3ccccc32)ccc1Cl (stereo unspecified) | -3.14
CCCCCCCCCCCCCCCC(=O)OC/C=C(C)/C=C/C=C(C)/C=C/C1=C(C)CCCC1(C)C | 0.15
Cc1ncc(C[n+]2csc(CCO)c2C)c(N)n1 | 2.25
CC(C)c1c(C(=O)Nc2ccccc2)c(-c2ccccc2)c(-c2ccc(F)cc2)n1CC[C@@H](O)C[C@@H](O)CC(=O)O | 0.549
CC(=O)OCC(=O)[C@@]1(O)CC[C@H]2[C@@H]3CCC4=CC(=O)CC[C@]4(C)[C@H]3[C@@H](O)C[C@@]21C | -2
CC(=O)OCC(=O)[C@@]1(O)CC[C@H]2[C@@H]3CCC4=CC(=O)C=C[C@]4(C)[C@@]3(Cl)[C@@H](Cl)C[C@@]21C | 0.148
O=C(O)CN1C(=O)c2cccc3cccc(c23)C1=O | 0.0638
FC(F)(F)C(Cl)Br (stereo unspecified) | 2.96
CCCCN(CCCC)CCCOC(=O)c1ccc(N)cc1 | 0.87
CC(=O)O[C@@H]1C[C@H]2C(C)(C)[C@@H](O)CC[C@]2(C)[C@H]2CC[C@@]3(C)[C@H](c4ccoc4)OC(=O)[C@H]4O[C@]43[C@@]21C [beta-DIHYDROGEDUNOL] | 1.36
Cc1ccc(C(=O)c2ccc(CC(=O)O)n2C)cc1 | -1.01
CC(=O)OCC(=O)[C@@]1(O)CC[C@H]2[C@@H]3CCC4=CC(=O)CC[C@]4(C)[C@@]3(F)[C@@H](O)C[C@@]21C | -0.156
CC(=O)O[C@@H]1C[C@H]2C(C)(C)C(=O)CC[C@]2(C)[C@H]2CC[C@@]3(C)[C@H](c4ccoc4)OC(=O)[C@H]4O[C@]43[C@@]21C | 0.705
O=C(O)CCCCCCCC(=O)O | 1.18
CC12CCC3C(CC3(C)C)C(C)(CCC1=O)O2 (stereo unspecified) | 1.97

Source: the supplement of paper PMC3741180, “A Novel High Throughput Biochemical Assay to Evaluate the HuR Protein-RNA Complex Formation” (PLoS ONE, 2013)
